These are yes or no findings as the source states them, for the method shown. For some assays here: Binding seen in cells or lysates may run through a third protein. Some results given as binding are weak or reduced against the parent protein; the word gives no strength. Sequences can lack the tags named with a protein.
Legend:
[1] = biological target: T1, TRPC6 amino-terminal cytoplasmic domain (amino acids 1-406) fused to the Gal4 DNA-binding domain (human) (UniProt Q9Y210); experiment: two-hybrid; directed test read by beta-galactosidase activity (data not shown)
T1 sequence: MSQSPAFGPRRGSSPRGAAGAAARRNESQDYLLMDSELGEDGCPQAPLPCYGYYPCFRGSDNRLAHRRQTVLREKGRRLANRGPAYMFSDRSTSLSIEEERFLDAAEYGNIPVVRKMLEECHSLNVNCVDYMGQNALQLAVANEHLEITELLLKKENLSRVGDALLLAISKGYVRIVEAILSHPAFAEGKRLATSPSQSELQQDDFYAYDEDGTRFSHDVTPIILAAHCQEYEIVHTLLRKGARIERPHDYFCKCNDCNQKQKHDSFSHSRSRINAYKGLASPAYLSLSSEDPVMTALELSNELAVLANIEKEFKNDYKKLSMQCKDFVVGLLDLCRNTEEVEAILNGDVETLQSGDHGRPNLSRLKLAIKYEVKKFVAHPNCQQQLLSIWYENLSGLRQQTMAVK

[2] = biological target: T2, TRPC6 amino acids 1-107 fused to the Gal4 DNA-binding domain (human) (UniProt Q9Y210); experiment: two-hybrid; directed test: pGADT7-SNF8 in Y187 mated with AH109 carrying pGBKT7-TRPC6 constructs; growth on high stringency media SD-ade, his, leu, trp
T2 sequence: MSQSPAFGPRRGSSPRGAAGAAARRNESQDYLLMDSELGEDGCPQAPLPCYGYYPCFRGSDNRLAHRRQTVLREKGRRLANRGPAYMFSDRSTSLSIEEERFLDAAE

[3] = biological target: T1, TRPC6 amino-terminal cytoplasmic domain (amino acids 1-406) fused to the Gal4 DNA-binding domain (human); experiment: as above
[4] = biological target: T3, FLAG-tagged TRPC6 (wild type) under a tetracycline inducible promoter (human) (UniProt Q9Y210); experiment: co-IP; M1R cells with tetracycline-induced FLAG-TRPC6, transfected with HA-SNF8; with or without 100 uM carbachol for 5 minutes before lysis; modified RIPA lysis buffer; FLAG M2 agarose, 4 C, 2-3 hours; blot with anti-HA
T3 sequence: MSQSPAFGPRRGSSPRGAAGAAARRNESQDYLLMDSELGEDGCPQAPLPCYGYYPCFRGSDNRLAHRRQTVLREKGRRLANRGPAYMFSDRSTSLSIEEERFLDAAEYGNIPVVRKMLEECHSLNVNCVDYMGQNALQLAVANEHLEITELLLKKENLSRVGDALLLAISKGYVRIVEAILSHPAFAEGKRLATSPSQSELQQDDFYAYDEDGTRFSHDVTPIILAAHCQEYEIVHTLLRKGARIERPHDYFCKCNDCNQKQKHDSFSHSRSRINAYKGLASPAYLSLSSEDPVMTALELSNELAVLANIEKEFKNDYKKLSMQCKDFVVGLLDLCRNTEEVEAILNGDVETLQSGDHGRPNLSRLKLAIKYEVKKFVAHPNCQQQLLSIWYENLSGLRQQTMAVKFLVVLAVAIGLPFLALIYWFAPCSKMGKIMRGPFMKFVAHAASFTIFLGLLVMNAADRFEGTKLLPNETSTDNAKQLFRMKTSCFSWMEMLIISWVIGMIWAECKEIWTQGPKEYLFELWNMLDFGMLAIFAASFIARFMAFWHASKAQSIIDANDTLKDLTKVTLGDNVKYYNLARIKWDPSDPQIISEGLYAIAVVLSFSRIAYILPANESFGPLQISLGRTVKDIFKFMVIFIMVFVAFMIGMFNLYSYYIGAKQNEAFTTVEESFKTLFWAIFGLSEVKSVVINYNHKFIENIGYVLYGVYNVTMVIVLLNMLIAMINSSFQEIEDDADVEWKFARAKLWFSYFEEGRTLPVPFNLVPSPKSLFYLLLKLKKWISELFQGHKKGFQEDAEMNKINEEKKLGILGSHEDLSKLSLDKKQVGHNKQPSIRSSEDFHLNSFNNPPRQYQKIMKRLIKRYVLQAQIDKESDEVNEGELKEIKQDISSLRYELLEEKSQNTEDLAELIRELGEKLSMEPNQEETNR

[5] = biological target: T4, FLAG-TRPC6 107-931 (human) (UniProt Q9Y210); experiment: co-IP; HEK 293T cells co-expressing full-length HA-TRPC6 and FLAG-tagged TRPC6 constructs; FLAG immunoprecipitation, blot for HA-TRPC6
T4 sequence: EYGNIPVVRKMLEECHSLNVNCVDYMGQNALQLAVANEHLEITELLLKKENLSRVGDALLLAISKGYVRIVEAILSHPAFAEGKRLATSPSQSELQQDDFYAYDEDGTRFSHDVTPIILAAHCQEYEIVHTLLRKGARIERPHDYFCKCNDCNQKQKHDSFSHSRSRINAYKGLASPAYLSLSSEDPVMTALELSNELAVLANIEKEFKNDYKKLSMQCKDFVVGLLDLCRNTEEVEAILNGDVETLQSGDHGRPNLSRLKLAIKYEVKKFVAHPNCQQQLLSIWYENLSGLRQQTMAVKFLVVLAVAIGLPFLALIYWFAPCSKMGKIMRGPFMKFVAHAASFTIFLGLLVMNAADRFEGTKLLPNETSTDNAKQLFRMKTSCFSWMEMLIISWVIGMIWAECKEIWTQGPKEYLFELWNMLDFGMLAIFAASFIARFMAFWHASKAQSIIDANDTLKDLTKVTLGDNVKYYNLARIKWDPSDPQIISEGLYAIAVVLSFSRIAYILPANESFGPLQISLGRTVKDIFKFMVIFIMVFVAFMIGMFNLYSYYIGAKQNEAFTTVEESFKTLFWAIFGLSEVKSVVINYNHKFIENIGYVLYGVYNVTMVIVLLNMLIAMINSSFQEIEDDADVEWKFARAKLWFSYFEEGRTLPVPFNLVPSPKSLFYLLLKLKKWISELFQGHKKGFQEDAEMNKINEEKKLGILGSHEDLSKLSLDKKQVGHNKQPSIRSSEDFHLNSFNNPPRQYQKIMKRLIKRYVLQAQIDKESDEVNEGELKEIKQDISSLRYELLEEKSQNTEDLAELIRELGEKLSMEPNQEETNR

B1: Full-length SNF8 fused to the Gal4 activation domain (pGADT7-SNF8) (protein, UniProt Q96H20 1-258)
chain: MHRRGVGAGAIAKKKLAEAKYKERGTVLAEDQLAQMSKQLDMFKTNLEEFASKHKQEIRKNPEFRVQFQDMCATIGVDPLASGKGFWSEMLGVGDFYYELGVQIIEVCLALKHRNGGLITLEELHQQVLKGRGKFAQDVSQDDLIRAIKKLKALGTGFGIIPVGGTYLIQSVPAELNMDHTVVLQLAEKNGYVTVSEIKASLKWETERARQVLEHLLKEGLAWLDLQAPGEAHYWLPALFTDLYSQEITAEEAREALP
binding [1]: binds | binding [2]: binds | binding [3]: binds

B2: HA-tagged SNF8 (protein, UniProt Q96H20 1-258)
chain: B1 chain
binding [4]: binds

B3: Full-length HA-tagged TRPC6 (protein, UniProt Q9Y210 1-931)
chain: T3 sequence
binding [5]: binds

— publication PMC3520717
